Test [1] deals with T1, endogenous RORα of mouse cerebellar neurons and cerebellum (mouse (endogenous in primary cerebellar neurons and cerebellum)) (UniProt P51448).
T1 sequence: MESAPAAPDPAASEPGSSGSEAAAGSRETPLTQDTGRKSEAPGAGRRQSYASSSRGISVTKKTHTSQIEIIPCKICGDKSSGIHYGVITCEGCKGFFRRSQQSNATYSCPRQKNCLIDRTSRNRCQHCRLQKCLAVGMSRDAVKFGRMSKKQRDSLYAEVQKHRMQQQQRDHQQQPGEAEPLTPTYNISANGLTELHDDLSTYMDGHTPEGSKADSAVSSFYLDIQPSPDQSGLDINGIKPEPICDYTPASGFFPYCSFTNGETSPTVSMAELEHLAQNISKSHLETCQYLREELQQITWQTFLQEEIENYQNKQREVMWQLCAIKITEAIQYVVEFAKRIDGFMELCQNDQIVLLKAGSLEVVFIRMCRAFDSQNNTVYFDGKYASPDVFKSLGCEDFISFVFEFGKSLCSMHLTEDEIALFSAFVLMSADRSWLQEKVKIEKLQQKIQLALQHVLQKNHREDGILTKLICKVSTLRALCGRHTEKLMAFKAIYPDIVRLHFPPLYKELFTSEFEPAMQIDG
Briefly: co-IP; cerebellar tissue of C57BL/6, Atxn1-KI (No Dox) and Group I mice at P7 and P21; reciprocal precipitation of YAP and RORα.

Sequences of proteins named here, by UniProt entry; tags and fusion partners are left off. A change or cut given only in a name is not applied to a line headed by its entry. A line that says so, or that is headed by a name, gives the form on record, which may keep a tag or linker.
full-length YAP (YAP2) of mouse cerebellum (mouse (endogenous in cerebellum)) (P46938-2, form named): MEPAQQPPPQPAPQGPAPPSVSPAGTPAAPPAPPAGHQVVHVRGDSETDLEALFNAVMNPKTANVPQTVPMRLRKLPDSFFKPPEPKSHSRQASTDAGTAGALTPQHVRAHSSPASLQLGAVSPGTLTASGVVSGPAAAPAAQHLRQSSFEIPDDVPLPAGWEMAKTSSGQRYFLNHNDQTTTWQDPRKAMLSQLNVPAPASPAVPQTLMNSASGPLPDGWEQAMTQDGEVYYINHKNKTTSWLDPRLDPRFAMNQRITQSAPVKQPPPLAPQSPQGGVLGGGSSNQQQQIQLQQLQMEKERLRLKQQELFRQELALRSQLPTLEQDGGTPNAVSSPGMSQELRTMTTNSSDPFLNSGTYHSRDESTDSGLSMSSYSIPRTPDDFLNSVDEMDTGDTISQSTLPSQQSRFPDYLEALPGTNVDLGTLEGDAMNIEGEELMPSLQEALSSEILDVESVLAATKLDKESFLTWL
UniProt Q92993: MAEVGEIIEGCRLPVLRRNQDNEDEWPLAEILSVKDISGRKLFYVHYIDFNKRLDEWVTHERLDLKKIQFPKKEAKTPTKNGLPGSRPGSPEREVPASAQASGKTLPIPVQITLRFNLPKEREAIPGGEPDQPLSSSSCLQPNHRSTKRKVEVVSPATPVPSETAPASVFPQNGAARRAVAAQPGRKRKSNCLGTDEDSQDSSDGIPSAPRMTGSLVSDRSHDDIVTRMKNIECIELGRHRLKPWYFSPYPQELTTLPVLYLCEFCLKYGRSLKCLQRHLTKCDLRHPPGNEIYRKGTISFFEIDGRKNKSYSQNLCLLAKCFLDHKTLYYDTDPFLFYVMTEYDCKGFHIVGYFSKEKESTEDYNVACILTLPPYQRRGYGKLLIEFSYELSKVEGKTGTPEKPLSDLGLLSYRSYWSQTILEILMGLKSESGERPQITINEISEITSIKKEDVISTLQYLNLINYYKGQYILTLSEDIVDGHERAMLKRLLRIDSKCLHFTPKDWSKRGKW

The target in test [2] is T2, GST-RORα (a.a. 424–523) (human) (UniProt P35398).
T2 sequence: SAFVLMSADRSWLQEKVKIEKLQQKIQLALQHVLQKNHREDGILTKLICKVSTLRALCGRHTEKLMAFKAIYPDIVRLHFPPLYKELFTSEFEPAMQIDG
Nature of the test: pull-down; GST-RORα (a.a. 424-523), His-Tip60 and His-YAP mixed in PBS with 0.1% Tween-20 and protease inhibitors, 12 h at 4 °C; GST-RORα pulled down with glutathione-Sepharose; rising amounts of His-Tip60 or His-YAP; both purified.

Test [3] addresses T3, human RORα, wild type (RORα-pCIneo) (human) (UniProt P35398).
T3 sequence: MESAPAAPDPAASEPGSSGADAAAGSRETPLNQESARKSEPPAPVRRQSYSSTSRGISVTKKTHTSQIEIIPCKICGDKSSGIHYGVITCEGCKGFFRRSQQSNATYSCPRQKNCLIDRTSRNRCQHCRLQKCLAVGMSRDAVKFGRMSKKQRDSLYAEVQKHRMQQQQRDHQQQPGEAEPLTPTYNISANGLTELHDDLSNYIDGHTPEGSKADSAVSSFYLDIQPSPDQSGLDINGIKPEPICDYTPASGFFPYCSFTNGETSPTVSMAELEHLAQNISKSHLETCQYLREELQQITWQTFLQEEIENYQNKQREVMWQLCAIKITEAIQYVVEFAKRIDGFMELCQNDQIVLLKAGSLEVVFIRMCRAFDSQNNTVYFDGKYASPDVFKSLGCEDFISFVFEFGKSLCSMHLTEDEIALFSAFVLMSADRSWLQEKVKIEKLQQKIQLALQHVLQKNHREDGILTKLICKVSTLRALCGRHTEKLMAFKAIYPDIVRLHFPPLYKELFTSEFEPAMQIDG
Briefly: co-IP; COS-7 cells transiently overexpressing RORα, 2 days after transfection; lysis and washes in TNE buffer (10 mM Tris-HCl pH 7.5, 150 mM NaCl, 1 mM EDTA, 1% Nonidet P-40); Protein G-Sepharose.

Test [4] deals with T3, human RORα, wild type (RORα-pCIneo) (human). Briefly: co-IP; mouse primary cerebellar neurons transfected with FLAG-YAP2, FLAG-YAPdeltaC or YAP2 WW mutants, with endogenous or transfected RORα; 2 days after transfection; precipitation with anti-FLAG and anti-RORα antibodies.
Test [5] deals with FLAG-YAP2 (full-length YAP) (not stated (human or rat cDNA cloned)) (UniProt P46937). Briefly: co-IP; COS-7 cells transiently overexpressing RORα, 2 days after transfection; lysis and washes in TNE buffer (10 mM Tris-HCl pH 7.5, 150 mM NaCl, 1 mM EDTA, 1% Nonidet P-40); Protein G-Sepharose.
Test [6] has the same target. Nature of the test: co-IP; mouse primary cerebellar neurons transfected with FLAG-YAP2, FLAG-YAPdeltaC or YAP2 WW mutants, with endogenous or transfected RORα; 2 days after transfection; precipitation with anti-FLAG and anti-RORα antibodies.
Test [7] has as its target full-length YAP (YAP2) of mouse cerebellum (mouse (endogenous in cerebellum)) (UniProt P46938). Briefly: co-IP; cerebellar tissue of C57BL/6, Atxn1-KI (No Dox) and Group I mice at P7 and P21; reciprocal precipitation of YAP and RORα.

These are yes or no findings as the source states them, for the method shown. For some of these results: Binding seen in cells or lysates may run through a third protein. Some results given as binding are weak or reduced against the parent protein; the word gives no strength. For some of these results: Tags and fused reporters may be left off the sequences shown.

“full-length YAP (YAP2) of mouse cerebellum (from UniProt P46938-2 1-472)”: the binding result in test [1] is recorded as “binds”. With “His-YAP (full-length YAP2) (from UniProt P46937-2 1-488)”, in test [2], the binding entry was “binds”. Same read-out and setting: the same measure for His-Tip60 (from UniProt Q92993 1-513): “binds”.

Regarding “FLAG-YAP2 (full-length YAP) (from UniProt P46937-2 1-488)”, the binding entry in test [3] and in test [4] was “binds” throughout.

B1: human RORα, wild type (RORα-pCIneo) (protein, UniProt P35398-2 1-523)
chain: MESAPAAPDPAASEPGSSGADAAAGSRETPLNQESARKSEPPAPVRRQSYSSTSRGISVTKKTHTSQIEIIPCKICGDKSSGIHYGVITCEGCKGFFRRSQQSNATYSCPRQKNCLIDRTSRNRCQHCRLQKCLAVGMSRDAVKFGRMSKKQRDSLYAEVQKHRMQQQQRDHQQQPGEAEPLTPTYNISANGLTELHDDLSNYIDGHTPEGSKADSAVSSFYLDIQPSPDQSGLDINGIKPEPICDYTPASGFFPYCSFTNGETSPTVSMAELEHLAQNISKSHLETCQYLREELQQITWQTFLQEEIENYQNKQREVMWQLCAIKITEAIQYVVEFAKRIDGFMELCQNDQIVLLKAGSLEVVFIRMCRAFDSQNNTVYFDGKYASPDVFKSLGCEDFISFVFEFGKSLCSMHLTEDEIALFSAFVLMSADRSWLQEKVKIEKLQQKIQLALQHVLQKNHREDGILTKLICKVSTLRALCGRHTEKLMAFKAIYPDIVRLHFPPLYKELFTSEFEPAMQIDG
Regarding B1, the binding entry in test [5] and in test [6] was “binds” throughout.

B2: normal Atxn1 of mouse cerebellum (protein, UniProt P54254 1-791)
chain: MKSNQERSNECLPPKKREIPATSRPSEEKATALPSDNHCVEGVAWLPSTPGIRGHGGGRHGSAGTSGEHGLQGMGLHKALSAGLDYSPPSAPRSVPTANTLPTVYPPPQSGTPVSPVQYAHLSHTFQFIGSSQYSGPYAGFIPSQLISPSGNPVTSAVASAAGATTPSQRSQLEAYSTLLANMGSLSQAPGHKVEPPPQQHLSRAAGLVNPGSPPPPTQQNQYIHISSSPQSSGRATSPPPIPVHLHPHQTMIPHTLTLGPSSQVVVQYSDAGGHFVPRESTKKAESSRLQQAMQAKEVLNGEMEKSRRYGASSSVELSLGKASSKSVPHPYESRHVVVHPSPADYSSRDTSGVRGSVMVLPNSSTPSADLEAQQTTHREASPSTLNDKSGLHLGKPGHRSYALSPHTVIQTTHSASEPLPVGLPATAFYAGTQPPVIGYLSGQQQAITYAGGLPQHLVIPGNQPLLIPVGSPDMDTPGAASAIVTSSPQFAAVPHTFVTTALPKSENFNPEALVTQAAYPAMVQAQIHLPVVQSVASPTTASPTLPPYFMKGSIIQLANGELKKVEDLKTEDFIQSAEISNDLKIDSSTVERIEESHSPGVAVIQFAVGEHRAQVSVEVLVEYPFFVFGQGWSSCCPERTSQLFDLPCSKLSVGDVCISLTLKNLKNGSVKKGQPVDPASVLLKQAKTDSLAGSRHRYAEQENGINQGSAQVLSENGELKFPEKIGLPAAPFLSKIEPSKPTATRKRRWSAPETRKLEKSEDEPPLTLPKPSLIPQEVKICIEGRSNVGK
On to B2, for which the binding entry in test [7] is recorded as “binds”.

B3: endogenous RORα of mouse cerebellar neurons and cerebellum (protein, UniProt P51448 1-523)
chain: MESAPAAPDPAASEPGSSGSEAAAGSRETPLTQDTGRKSEAPGAGRRQSYASSSRGISVTKKTHTSQIEIIPCKICGDKSSGIHYGVITCEGCKGFFRRSQQSNATYSCPRQKNCLIDRTSRNRCQHCRLQKCLAVGMSRDAVKFGRMSKKQRDSLYAEVQKHRMQQQQRDHQQQPGEAEPLTPTYNISANGLTELHDDLSTYMDGHTPEGSKADSAVSSFYLDIQPSPDQSGLDINGIKPEPICDYTPASGFFPYCSFTNGETSPTVSMAELEHLAQNISKSHLETCQYLREELQQITWQTFLQEEIENYQNKQREVMWQLCAIKITEAIQYVVEFAKRIDGFMELCQNDQIVLLKAGSLEVVFIRMCRAFDSQNNTVYFDGKYASPDVFKSLGCEDFISFVFEFGKSLCSMHLTEDEIALFSAFVLMSADRSWLQEKVKIEKLQQKIQLALQHVLQKNHREDGILTKLICKVSTLRALCGRHTEKLMAFKAIYPDIVRLHFPPLYKELFTSEFEPAMQIDG
Consider B3, for which the binding result in test [7] and in test [6] was “binds” in each case.

Values taken from PMC5709507.
